Laboratory results taken from the M2OR odorant receptor database.
The entries are a selection whose mix differs from that of the whole data set. Calls are pooled over several reports, among them a noisy single-well screen. Some of the results follow.

Chains of the proteins cited; added tags and fusions are not shown. Chains listed by the source or under a name are the forms on record and can include a tag or linker.
O10G7, as listed by the source: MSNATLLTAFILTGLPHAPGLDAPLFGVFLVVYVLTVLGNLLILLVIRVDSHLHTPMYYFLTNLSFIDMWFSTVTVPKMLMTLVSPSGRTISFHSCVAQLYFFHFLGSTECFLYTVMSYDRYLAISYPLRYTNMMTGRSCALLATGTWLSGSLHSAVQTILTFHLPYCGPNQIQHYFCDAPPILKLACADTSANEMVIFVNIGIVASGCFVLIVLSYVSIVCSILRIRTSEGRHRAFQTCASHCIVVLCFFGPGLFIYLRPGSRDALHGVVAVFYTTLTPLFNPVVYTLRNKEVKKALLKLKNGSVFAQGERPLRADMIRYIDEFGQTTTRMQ

Key:
Conditions in all cases: stereoisomer not certain
[1] = system: T1, O10A4
T1 sequence (whole entry): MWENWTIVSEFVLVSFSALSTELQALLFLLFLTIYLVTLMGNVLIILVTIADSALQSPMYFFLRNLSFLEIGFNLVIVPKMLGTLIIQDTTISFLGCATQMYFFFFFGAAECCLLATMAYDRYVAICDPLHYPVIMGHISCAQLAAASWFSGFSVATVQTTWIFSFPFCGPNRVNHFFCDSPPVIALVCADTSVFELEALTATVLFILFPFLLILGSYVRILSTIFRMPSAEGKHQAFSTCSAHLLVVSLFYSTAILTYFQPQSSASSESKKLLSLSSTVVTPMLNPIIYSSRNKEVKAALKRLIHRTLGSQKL
Outline: (§1)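 Transient luciferase assays in mammalian cell lines were common, though methods varied by source. The values come from published papers and their supplementary material, with extra details from the original authors when needed. Responsive refers to a measured signal the original authors judged statistically different from baseline, and non-responsive (inactive) to the remainder.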

[2] = system: T2, O10A5
T2 sequence (whole entry): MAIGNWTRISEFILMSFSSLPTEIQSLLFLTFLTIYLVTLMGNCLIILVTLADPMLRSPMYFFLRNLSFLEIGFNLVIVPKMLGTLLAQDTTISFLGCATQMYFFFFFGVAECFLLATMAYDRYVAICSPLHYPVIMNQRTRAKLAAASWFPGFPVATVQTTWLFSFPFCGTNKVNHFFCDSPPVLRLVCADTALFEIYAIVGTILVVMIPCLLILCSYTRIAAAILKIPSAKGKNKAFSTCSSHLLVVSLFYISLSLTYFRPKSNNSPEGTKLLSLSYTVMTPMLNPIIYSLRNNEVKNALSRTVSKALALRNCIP
Outline: as §1

[3] = system: T3, O10AD
T3 sequence (whole entry): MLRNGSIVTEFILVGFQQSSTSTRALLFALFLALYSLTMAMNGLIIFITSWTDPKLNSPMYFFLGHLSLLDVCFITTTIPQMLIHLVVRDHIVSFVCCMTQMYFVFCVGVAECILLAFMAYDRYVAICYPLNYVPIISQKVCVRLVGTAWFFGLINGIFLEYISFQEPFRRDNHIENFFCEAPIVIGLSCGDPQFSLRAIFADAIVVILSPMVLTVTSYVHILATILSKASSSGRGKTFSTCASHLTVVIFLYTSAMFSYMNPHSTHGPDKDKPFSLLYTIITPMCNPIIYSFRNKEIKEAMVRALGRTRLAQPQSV
Outline: as §1

[4] = system: T4, O10C1
T4 sequence (whole entry): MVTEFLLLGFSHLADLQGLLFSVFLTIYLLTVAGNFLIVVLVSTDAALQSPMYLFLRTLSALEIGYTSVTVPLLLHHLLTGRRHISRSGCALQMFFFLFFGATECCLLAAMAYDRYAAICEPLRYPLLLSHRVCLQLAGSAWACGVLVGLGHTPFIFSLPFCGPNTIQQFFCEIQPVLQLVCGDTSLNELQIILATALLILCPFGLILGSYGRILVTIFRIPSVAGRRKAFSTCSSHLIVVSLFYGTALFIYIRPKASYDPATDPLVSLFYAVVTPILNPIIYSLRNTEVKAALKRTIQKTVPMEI
Outline: as §1

[5] = system: T5, O10D3
T5 sequence (whole entry): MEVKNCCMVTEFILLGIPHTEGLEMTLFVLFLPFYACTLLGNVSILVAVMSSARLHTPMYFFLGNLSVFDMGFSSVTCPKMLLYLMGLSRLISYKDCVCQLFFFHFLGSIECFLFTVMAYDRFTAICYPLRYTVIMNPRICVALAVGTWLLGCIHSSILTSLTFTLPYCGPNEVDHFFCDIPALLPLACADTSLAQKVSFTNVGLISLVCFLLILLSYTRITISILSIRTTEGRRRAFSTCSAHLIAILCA
Outline: as §1

[6] = system: T6, O10G3
T6 sequence (whole entry): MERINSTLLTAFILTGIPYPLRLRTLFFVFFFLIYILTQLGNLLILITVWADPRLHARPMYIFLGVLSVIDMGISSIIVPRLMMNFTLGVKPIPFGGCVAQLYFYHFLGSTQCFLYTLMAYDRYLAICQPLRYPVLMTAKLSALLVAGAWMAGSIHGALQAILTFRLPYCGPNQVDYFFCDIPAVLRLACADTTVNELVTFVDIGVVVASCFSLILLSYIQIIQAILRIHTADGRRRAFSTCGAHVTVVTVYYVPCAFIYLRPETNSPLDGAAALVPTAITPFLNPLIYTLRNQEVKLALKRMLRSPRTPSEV
Outline: as §1

[7] = system: T7, O10G4
T7 sequence (whole entry): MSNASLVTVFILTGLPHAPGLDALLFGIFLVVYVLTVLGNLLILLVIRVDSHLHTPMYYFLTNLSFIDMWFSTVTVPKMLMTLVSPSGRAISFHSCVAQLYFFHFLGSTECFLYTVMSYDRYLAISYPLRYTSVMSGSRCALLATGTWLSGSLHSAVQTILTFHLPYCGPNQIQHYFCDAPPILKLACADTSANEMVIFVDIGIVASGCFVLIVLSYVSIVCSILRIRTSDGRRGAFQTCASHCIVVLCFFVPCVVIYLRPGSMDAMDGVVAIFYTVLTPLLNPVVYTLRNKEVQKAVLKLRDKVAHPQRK
Outline: as §1

[8] = system: T8, O10G9
T8 sequence (whole entry): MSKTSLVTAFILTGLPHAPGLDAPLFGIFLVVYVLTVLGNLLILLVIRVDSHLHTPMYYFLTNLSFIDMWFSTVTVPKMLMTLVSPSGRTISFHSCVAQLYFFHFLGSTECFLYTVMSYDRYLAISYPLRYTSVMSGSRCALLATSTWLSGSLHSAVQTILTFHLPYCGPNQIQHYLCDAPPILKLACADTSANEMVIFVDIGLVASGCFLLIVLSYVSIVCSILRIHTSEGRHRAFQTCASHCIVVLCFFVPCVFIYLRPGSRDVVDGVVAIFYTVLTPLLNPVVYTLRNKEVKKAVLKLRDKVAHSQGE
Outline: as §1

[9] = system: T9, O10H2
T9 sequence (whole entry): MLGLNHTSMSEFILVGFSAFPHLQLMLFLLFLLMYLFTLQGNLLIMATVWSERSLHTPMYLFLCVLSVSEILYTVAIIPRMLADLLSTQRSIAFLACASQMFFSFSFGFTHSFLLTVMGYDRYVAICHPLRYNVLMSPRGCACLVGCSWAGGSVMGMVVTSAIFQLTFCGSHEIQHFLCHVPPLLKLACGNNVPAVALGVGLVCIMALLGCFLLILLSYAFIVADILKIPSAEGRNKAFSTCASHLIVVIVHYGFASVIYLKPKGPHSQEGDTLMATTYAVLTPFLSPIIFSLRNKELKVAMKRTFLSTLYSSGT
Outline: as §1

[10] = system: T10, O10H5
T10 sequence (whole entry): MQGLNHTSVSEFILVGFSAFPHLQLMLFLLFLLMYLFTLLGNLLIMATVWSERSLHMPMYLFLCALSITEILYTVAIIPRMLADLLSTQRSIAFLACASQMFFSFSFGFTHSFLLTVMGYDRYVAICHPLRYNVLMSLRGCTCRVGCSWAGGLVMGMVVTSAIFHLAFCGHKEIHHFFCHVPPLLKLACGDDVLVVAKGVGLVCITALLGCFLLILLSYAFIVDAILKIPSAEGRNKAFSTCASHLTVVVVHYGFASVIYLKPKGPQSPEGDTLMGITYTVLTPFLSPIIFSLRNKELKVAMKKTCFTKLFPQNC
Outline: as §1

[11] = system: T11, O10J1
T11 sequence (whole entry): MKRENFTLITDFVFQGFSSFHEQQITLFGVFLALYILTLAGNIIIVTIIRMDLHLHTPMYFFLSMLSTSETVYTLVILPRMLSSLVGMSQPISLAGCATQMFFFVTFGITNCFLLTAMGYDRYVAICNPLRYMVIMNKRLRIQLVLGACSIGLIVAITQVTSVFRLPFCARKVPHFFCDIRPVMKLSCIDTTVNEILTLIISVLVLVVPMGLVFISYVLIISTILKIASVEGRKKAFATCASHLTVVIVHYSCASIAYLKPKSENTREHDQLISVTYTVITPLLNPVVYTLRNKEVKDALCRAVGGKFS
Outline: as §1

[12] = system: O10G7
Outline: as §1

Measured: odorant receptor agonist call

CCCCCCCC=CC=O
inactive: [1] | [2] | [3] | [4] | [5] | [6] | [7] | [8] | [9] | [10] | [11]

CCCCCCCCCCC=O
inactive: [1] | [2] | [3] | [4] | [5] | [6] | [7] | [8] | [9] | [10] | [11]

O=C1CCCCCCCCCCCC(=O)OCCO1
active: [7] | [11]
inactive: [1] | [2] | [3] | [4] | [5] | [6] | [8] | [9] | [10]

CCCCCC(C)=O
active: [6]
inactive: [2] | [3] | [4] | [5] | [8] | [9] | [10]

CC(=O)c1ccccc1
active: [12]
inactive: [2] | [3] | [4] | [5] | [6] | [8] | [9] | [10]

Arranged by SMILES length (high to low): some entries from above.
O=C1CCCCCCCCCCCC(=O)OCCO1
active: [7] | [11]
inactive: [1] | [2] | [3] | [4] | [5] | [6] | [8] | [9] | [10]

CCCCCCCCCCC=O
inactive: [1] | [2] | [3] | [4] | [5] | [6] | [7] | [8] | [9] | [10] | [11]

CCCCCC(C)=O
active: [6]
inactive: [2] | [3] | [4] | [5] | [8] | [9] | [10]

Following part

c1cnccn1
inactive: [1] | [2] | [3] | [4] | [5] | [6] | [7] | [8] | [9] | [10] | [11]

COC(=O)c1ccccc1O
inactive: [1] | [2] | [3] | [4] | [5] | [6] | [7] | [8] | [9] | [10] | [11]

CC(=O)C(C)=O
inactive: [1] | [2] | [3] | [4] | [5] | [6] | [7] | [8] | [9] | [10] | [11]

CC1CCC(C(C)C)C(O)C1 (stereo not given)
active: [3] | [4] | [9]
inactive: [1] | [2] | [5] | [6] | [7] | [8] | [10] | [11]

O=CCc1ccccc1
inactive: [1] | [2] | [3] | [4] | [5] | [6] | [7] | [8] | [9] | [10] | [11]

CC1=NC(C)SC1C (stereo not given)
inactive: [2] | [3] | [4] | [5] | [8] | [9] | [10]
active: [6]

CCCCCCCOC(C)=O
inactive: [1] | [2] | [3] | [4] | [5] | [6] | [8] | [9] | [10] | [11]
active: [7]

CC12CCC(C1)C(C)(C)C2=O (stereo not given)
inactive: [1] | [2] | [3] | [4] | [5] | [6] | [7] | [8] | [9] | [10] | [11]
